Assay results reported in patent US20140140998A1.
These are yes or no findings as the source states them, for the method shown. In cells and extracts the contact can be indirect. Some binding calls cover weakened binding; strength is not graded here.

Chains of the proteins cited; added tags and fusions are not shown. Residues count along the entry.
UniProt Q09472, residues 2-2414: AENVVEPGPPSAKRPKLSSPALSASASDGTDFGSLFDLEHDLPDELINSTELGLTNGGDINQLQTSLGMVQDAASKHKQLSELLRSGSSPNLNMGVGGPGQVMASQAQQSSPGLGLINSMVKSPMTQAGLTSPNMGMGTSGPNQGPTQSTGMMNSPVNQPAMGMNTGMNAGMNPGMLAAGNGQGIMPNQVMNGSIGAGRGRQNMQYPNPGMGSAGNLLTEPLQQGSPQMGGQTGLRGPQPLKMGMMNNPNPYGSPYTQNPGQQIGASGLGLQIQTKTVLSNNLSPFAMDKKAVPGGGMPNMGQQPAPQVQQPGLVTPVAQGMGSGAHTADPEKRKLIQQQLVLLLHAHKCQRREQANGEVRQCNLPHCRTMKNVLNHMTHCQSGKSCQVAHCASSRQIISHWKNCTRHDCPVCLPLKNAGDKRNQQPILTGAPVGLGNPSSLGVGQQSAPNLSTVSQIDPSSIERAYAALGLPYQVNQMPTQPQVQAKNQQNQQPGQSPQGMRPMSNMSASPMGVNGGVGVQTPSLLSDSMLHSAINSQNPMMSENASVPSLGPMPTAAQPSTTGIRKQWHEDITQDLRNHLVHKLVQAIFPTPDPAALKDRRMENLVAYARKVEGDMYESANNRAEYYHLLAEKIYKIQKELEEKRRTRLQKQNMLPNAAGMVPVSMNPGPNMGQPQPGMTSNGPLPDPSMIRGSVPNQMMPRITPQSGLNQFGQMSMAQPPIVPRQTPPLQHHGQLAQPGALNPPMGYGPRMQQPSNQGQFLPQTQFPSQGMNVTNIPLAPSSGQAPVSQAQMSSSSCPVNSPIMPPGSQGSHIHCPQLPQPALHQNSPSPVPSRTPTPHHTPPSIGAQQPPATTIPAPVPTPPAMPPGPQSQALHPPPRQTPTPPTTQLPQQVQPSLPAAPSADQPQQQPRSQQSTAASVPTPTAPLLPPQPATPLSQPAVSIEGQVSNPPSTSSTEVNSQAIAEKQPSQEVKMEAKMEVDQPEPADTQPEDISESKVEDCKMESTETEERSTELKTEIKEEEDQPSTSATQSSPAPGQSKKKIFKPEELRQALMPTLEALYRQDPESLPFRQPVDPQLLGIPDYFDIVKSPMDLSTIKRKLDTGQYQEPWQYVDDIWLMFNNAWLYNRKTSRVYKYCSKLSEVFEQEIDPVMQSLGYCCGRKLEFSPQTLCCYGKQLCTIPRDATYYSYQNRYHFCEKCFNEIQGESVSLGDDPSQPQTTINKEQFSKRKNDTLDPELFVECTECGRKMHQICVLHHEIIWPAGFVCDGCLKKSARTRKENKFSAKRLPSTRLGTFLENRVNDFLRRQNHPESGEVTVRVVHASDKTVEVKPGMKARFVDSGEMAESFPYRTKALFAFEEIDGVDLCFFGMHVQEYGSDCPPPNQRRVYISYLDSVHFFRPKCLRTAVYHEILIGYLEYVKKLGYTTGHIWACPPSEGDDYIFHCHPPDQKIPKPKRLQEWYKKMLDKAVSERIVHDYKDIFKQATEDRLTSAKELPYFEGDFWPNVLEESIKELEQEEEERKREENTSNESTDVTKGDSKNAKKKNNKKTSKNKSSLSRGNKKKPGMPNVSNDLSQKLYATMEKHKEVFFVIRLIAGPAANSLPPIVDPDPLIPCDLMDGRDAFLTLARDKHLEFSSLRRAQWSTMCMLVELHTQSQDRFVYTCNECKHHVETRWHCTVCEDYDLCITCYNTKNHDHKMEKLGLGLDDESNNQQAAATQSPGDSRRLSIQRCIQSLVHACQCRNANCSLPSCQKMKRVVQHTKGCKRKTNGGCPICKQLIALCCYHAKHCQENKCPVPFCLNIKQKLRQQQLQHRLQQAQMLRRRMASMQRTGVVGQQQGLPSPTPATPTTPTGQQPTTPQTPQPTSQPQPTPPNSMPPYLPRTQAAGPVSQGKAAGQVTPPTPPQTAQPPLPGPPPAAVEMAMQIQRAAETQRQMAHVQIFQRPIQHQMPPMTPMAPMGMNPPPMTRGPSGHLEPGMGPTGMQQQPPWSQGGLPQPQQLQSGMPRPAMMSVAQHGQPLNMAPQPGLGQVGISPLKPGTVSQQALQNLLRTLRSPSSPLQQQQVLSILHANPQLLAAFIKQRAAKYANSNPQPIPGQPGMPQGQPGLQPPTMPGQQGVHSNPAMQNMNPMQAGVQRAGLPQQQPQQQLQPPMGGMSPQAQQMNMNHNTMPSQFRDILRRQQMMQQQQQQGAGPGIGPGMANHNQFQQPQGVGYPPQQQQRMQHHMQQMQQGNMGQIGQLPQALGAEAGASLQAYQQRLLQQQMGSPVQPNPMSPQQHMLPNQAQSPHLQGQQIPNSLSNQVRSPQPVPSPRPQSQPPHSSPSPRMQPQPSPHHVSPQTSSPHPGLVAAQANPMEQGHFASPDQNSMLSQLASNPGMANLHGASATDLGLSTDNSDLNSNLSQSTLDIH

Legend:
[1] = molecular target: T1, TβRI intracellular domain fragment (TβRI ICD), about 34 kDa (human) (UniProt P36897); experiment: co-immunoprecipitation from PC-3U cells
T1 sequence: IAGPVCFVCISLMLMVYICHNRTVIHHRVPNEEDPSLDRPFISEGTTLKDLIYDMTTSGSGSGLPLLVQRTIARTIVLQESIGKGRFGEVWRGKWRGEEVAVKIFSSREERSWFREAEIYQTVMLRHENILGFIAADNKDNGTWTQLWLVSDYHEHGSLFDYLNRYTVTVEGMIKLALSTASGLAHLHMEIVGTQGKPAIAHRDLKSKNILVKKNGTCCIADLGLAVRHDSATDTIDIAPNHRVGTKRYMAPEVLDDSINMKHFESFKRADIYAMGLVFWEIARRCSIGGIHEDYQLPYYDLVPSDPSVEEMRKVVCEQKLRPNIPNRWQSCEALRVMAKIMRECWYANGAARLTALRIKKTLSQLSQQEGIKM

[2] = molecular target: T2, type I receptor of transforming growth factor beta (TβRI), endogenous, full length (human) (UniProt P36897); experiment: co-immunoprecipitation from PC-3U cells (IP V22, blot anti-p300)
T2 sequence: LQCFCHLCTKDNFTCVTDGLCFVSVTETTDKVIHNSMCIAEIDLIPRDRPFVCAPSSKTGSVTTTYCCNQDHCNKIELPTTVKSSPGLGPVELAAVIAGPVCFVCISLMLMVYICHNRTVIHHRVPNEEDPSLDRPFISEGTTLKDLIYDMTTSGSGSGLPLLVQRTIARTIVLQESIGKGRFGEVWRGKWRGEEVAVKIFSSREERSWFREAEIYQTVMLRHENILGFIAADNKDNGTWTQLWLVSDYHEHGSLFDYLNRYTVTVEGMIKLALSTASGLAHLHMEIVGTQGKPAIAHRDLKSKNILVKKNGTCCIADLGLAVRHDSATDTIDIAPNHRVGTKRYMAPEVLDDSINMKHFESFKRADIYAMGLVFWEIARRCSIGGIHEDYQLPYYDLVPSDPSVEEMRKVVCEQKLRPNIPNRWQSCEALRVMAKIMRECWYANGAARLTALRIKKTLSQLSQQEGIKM

binding [1]: binds | binding [2]: binds
Substance: p300, endogenous (from UniProt Q09472 2-2414) (enzyme)
